# Measured values published in article PMC4865133.
# These are yes or no findings as the source states them, for the method shown. For part of these data: Binding seen in cells or lysates may run through a third protein. Some entries that bind do so weakly or less than the wild type. Where a sequence is shown, tags or fusion partners need not be part of it.
# T1: SUVH9 fused with N-LUC (Arabidopsis) (UniProt Q9T0G7)
# T1 sequence: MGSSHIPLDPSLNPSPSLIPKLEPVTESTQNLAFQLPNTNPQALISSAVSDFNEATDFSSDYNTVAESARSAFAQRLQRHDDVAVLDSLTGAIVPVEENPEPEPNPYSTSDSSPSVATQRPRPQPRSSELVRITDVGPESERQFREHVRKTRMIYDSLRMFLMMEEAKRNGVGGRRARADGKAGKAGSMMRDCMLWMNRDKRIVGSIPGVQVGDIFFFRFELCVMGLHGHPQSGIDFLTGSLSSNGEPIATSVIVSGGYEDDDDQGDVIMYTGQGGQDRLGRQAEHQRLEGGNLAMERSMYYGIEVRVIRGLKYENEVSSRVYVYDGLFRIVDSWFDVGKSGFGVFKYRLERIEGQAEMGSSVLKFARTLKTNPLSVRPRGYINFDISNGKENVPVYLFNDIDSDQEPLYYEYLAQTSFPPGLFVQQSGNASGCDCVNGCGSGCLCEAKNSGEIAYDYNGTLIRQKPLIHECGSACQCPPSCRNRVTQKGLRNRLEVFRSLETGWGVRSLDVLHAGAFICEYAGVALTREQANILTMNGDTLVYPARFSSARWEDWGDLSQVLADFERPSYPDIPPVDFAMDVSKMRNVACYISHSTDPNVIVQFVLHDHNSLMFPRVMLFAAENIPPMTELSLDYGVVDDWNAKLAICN
# T2: MORC6 fused with N-LUC (Arabidopsis) (UniProt Q56Y74)
# T2 sequence: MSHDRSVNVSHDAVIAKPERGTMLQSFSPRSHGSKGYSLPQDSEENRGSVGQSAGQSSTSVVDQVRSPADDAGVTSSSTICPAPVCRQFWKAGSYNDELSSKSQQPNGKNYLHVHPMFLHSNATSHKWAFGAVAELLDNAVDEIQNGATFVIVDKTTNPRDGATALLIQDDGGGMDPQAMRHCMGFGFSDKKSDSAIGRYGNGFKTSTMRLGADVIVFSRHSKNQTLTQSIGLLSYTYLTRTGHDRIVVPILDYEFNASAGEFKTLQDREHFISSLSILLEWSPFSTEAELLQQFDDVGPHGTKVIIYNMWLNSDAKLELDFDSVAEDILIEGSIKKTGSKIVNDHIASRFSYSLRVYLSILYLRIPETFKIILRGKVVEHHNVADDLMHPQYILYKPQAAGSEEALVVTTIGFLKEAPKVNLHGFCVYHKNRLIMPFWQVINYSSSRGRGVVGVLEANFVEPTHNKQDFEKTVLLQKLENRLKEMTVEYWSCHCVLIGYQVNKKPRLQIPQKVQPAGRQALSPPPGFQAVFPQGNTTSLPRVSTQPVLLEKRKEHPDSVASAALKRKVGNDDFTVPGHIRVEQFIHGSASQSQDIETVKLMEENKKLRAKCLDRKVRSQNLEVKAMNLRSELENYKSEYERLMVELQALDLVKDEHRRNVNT
# T3: MORC6 fused with GAL4-BD (Arabidopsis) (UniProt Q56Y74)
# T3 sequence: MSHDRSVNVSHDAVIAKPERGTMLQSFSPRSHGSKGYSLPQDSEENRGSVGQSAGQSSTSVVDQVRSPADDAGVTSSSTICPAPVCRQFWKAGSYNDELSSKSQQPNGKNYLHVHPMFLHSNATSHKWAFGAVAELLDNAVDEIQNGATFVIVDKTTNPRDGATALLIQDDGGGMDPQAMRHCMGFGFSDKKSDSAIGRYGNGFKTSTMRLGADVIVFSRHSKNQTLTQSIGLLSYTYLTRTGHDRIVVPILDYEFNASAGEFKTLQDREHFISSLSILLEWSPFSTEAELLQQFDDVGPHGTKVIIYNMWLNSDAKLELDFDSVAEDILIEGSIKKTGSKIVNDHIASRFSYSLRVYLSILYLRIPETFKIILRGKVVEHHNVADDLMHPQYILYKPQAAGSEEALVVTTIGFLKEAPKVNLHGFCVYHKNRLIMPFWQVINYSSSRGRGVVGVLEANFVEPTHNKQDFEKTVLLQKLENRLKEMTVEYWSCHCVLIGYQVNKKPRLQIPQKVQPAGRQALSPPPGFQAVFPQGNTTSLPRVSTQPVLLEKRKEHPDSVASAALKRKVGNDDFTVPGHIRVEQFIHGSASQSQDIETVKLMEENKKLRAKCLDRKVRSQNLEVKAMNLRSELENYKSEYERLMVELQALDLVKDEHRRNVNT
# Tests used:
# [1] = molecular target: T1, SUVH9 fused with N-LUC (Arabidopsis); experiment: split reporter; split luciferase complementation; N-LUC and C-LUC fusions infiltrated with Agrobacterium into N. benthamiana leaves; luminescence imaged after 48 h
# [2] = molecular target: T2, MORC6 fused with N-LUC (Arabidopsis); experiment: as above
# [3] = molecular target: T3, MORC6 fused with GAL4-BD (Arabidopsis); experiment: two-hybrid; GAL4-AD fusions (pGADT7) and GAL4-BD fusions (pGBKT7); mating of Y187 and AH109, confirmed by co-transformation into AH109; growth on SD-Trp-Leu-His with 5 mM 3-AT
binding [1],binding [2],binding [3],Binder
binds,binds,–,"SWI3D fused with C-LUC (protein, UniProt Q8VY05 1-985) MEEKRRDSAGTLAFAGSSGDSPASEPMPAPRRRGGGLKRKANALGGSNFFSSAPSKRMLTREKAMLASFSPVHNGPLTRARQAPSIMPSAADGVKSEVLNVAVGADGEKPKEEEERNKAIREWEALEAKIEADFEAIRSRDSNVHVVPNHCGWFSWEKIHPLEERSLPSFFNGKLEGRTSEVYREIRNWIMGKFHSNPNIQIELKDLTELEVGDSEAKQEVMEFLDYWGLINFHPFPPTDTGSTASDHDDLGDKESLLNSLYRFQVDEACPPLVHKPRFTAQATPSGLFPDPMAADELLKQEGPAVEYHCNSCSADCSRKRYHCPKQADFDLCTECFNSGKFSSDMSSSDFILMEPAEAPGVGSGKWTDQETLLLLEALEIFKENWNEIAEHVATKTKAQCMLHFLQMPIEDAFLDQIDYKDPISKDTTDLAVSKDDNSVLKDAPEEAENKKRVDEDETMKEVPEPEDGNEEKVSQESSKPGDASEETNEMEAEQKTPKLETAIEERCKDEADENIALKALTEAFEDVGHSSTPEASFSFADLGNPVMGLAAFLVRLAGSDVATASARASIKSLHSNSGMLLATRHCYILEDPPDNKKDPTKSKSCSADAEGNDDNSHKDDQPEEKSKKAEEVSLNSDDREMPDTDTGKETQDSVSEEKQPGSRTENSTTKLDAVQEKRSSKPVTTDNSEKPVDIICPSQDKCSGKELQEPLKDGNKLSSENKDASQSTVSQSAADASQPEASRDVEMKDTLQSEKDPEDVVKTVGEKVQLAKEEGANDVLSTPDKSVSQQPIGSASAPENGTAGGNPNIEGKKEKDICEGTKDKYNIEKLKRAAISAISAAAVKAKNLAKQEEDQIRQLSGSLIEKQLHKLEAKLSIFNEAESLTMRVREQLERSRQRLYHERAQIIAARLGVPPSMSSKASLPTNRIAANFANVAQRPPMGMAFPRPPMPRPPGFPVPGSFVAATTMTGSSDPSPGSDNVSSV"
binds,binds,–,"SWI3C fused with C-LUC (protein, UniProt Q9XI07 1-807) MPASEDRRGKWKRKKRGGLSAARKPKQEEEDMEEEDEENNNNNNEEMDDVENADELQQNGGATPDPGLGIGEVVEDSGSRISDFPAVVKRVVIRPHASVMAVVAAERAGLIGETRGQGSLPALENISFGQLQALSTVPADSLDLERSDGSSSAYVISPPPIMDGEGVVKRFGDLVHVLPMHSDWFAPNTVDRLERQVVPQFFSGKSPNHTPESYMEFRNAIVSKYVENPEKTLTISDCQGLVDGVDIEDFARVFRFLDHWGIINYCATAQSHPGPLRDVSDVREDTNGEVNVPSAALTSIDSLIKFDKPNCRHKGGEVYSSLPSLDGDSPDLDIRIREHLCDSHCNHCSRPLPTVYFQSQKKGDILLCCDCFHHGRFVVGHSCLDFVRVDPMKFYGDQDGDNWTDQETLLLLEAVELYNENWVQIADHVGSKSKAQCILHFLRLPVEDGLLDNVEVSGVTNTENPTNGYDHKGTDSNGDLPGYSEQGSDTEIKLPFVKSPNPVMALVAFLASAVGPRVAASCAHESLSVLSEDDRMKSEGMQGKEASLLDGENQQQDGAHKTSSQNGAEAQTPLPQDKVMAAFRAGLSAAATKAKLFADHEEREIQRLSANIVNHQLKRMELKLKQFAEIETLLMKECEQVEKTRQRFSAERARMLSARFGSPGGISPQTNNLQGMSLSTGGNNINSLMHQQHQQQQASATSQPSIIPGFSNNPQVQAQMHFMARQQQQQQQQQQQQQQAFSFGPRLPLNAIQTNAGSTASPNVMFGNNQLNNPAAAGAASINQPSFSHPMVRSSTGSGSGSGLGLN"
–,–,binds,"IDN2 (full-length) fused with GAL4-AD (protein, UniProt Q8VZ79 1-647) MGSTVILSSDDEDSDISESEMDEYGDKMYLNLKGGKLKVRLSPQAFICPYCPNKKKTSFQYKDLLQHASGVGNSNSDKRSAKEKASHLALVKYLQQDLADSASEAEPSSKRQKNGNPIQDCDHDEKLVYPWKGIVVNIPTTKAQDGRSAGESGSKLRDEYILRGFNPTRVRPLWNYLGHSGTAIVEFNKDWNGLHNGLLFDKAYTVDGHGKKDWLKKDGPKLGLYGWIARADDYNGNNIIGENLRKTGDLKTIAELTEEEARKQELLVQNLRQLVEEKKKDMKEIEELCSVKSEELNQLMEEKEKNQQKHYRELNAIQERTMSHIQKIVDDHEKLKRLLESERKKLEIKCNELAKREVHNGTERMKLSEDLEQNASKNSSLELAAMEQQKADEEVKKLAEDQRRQKEELHEKIIRLERQRDQKQAIELEVEQLKGQLNVMKHMASDGDAEVVKEVDIIFKDLGEKEAQLADLDKFNQTLILRERRTNDELQEAHKELVNIMKEWNTNIGVKRMGELVTKPFVDAMQQKYCQQDVEDRAVEVLQLWEHYLKDSDWHPFKRVKLENEDREVEVIDDRDEKLRELKADLGDGPYNAVTKALLEINEYNPSGRYITTELWNFKADKKATLEEGVTCLLDQWEKAKRKRGMA"
–,binds,–,"IDN2 fused with C-LUC (protein, UniProt Q8VZ79 1-647) MGSTVILSSDDEDSDISESEMDEYGDKMYLNLKGGKLKVRLSPQAFICPYCPNKKKTSFQYKDLLQHASGVGNSNSDKRSAKEKASHLALVKYLQQDLADSASEAEPSSKRQKNGNPIQDCDHDEKLVYPWKGIVVNIPTTKAQDGRSAGESGSKLRDEYILRGFNPTRVRPLWNYLGHSGTAIVEFNKDWNGLHNGLLFDKAYTVDGHGKKDWLKKDGPKLGLYGWIARADDYNGNNIIGENLRKTGDLKTIAELTEEEARKQELLVQNLRQLVEEKKKDMKEIEELCSVKSEELNQLMEEKEKNQQKHYRELNAIQERTMSHIQKIVDDHEKLKRLLESERKKLEIKCNELAKREVHNGTERMKLSEDLEQNASKNSSLELAAMEQQKADEEVKKLAEDQRRQKEELHEKIIRLERQRDQKQAIELEVEQLKGQLNVMKHMASDGDAEVVKEVDIIFKDLGEKEAQLADLDKFNQTLILRERRTNDELQEAHKELVNIMKEWNTNIGVKRMGELVTKPFVDAMQQKYCQQDVEDRAVEVLQLWEHYLKDSDWHPFKRVKLENEDREVEVIDDRDEKLRELKADLGDGPYNAVTKALLEINEYNPSGRYITTELWNFKADKKATLEEGVTCLLDQWEKAKRKRGMA"
